Measurements from PubChem BioAssay AID248 (DTP/NCI, 2004).
The list is a part of this screen's results and no random one: it gathers tests that were run many times, whatever their T/C, doses with no T/C, and many T/C values between a quarter and a half above the control. Further doses and runs are listed elsewhere. T/C is the treated group as % of the vehicle group. Some doses have a count of surviving animals in place of a T/C: the source files T/C as zero there, which appears to mark a toxic dose or a test without result, not a measured value. Some doses without a T/C left all or most animals alive at the check, yet need not have been tolerated: the source hardly ever lists a survival T/C far under the control, and the zero likely stands for such cases as well. Counts of survivors are from the toxicity check (mostly the fifth day) where no day follows; animals may have died later. Schedule codes are those of the source, taken here to give the interval after Q, in days (D) or hours (H), and the number of doses after X. Some entries hold several experiments; their values stand side by side, smallest first. Some schedule codes hold Z or #, which are not explained here. For survival time, this PubChem deposit counts one and a half times the control or more as active, and values a quarter to a half above the control carry no call in these data; other NCI protocols may use other cut-offs. Some T/C values are followed by the survivors on the day toxicity was checked, most often the fifth; where none is given, no animal had died by that day. Marks such as (2×) say how often a value occurs here.

Test system: L1210 leukemia ip in BDF1 mice, survival T/C
Test: NCI In Vivo Anticancer Drug Screen. Data for tumor model L1210 Leukemia (intraperitoneal) in B6D2F1 (BDF1) mice
Details: T/C endpoint: mean survival time, higher T/C = longer survival
[1] = dose: 25.0 mg/kg/injection, schedule: Q04DX003 (ip), vehicle: water
[2] = dose: 50.0 mg/kg/injection, schedule: Q04DX003 (ip), vehicle: water
[3] = dose: 200.0 mg/kg/injection, schedule: Q04DX003 (ip), vehicle: Klucel (hydroxypropylcellulose) (HPC)
[4] = dose: 400.0 mg/kg/injection, schedule: Q04DX003 (ip), vehicle: Klucel (hydroxypropylcellulose) (HPC)
[5] = dose: 400.0 mg/kg/injection, schedule: Q04DX003 (ip), vehicle: saline with Tween-80
[6] = dose: 400.0 mg/kg/injection, schedule: Q04DX003 (ip), vehicle: saline
[7] = dose: 200.0 mg/kg/injection, schedule: Q04DX003 (ip), vehicle: saline with Tween-80

## O=C(CI)Nc1ccc(O)c2ccccc12
dose: 12.5 mg/kg/injection, schedule: Q04DX003 (ip), vehicle: water
  T/C: 86, 96 [5 of 6 alive] (2×), 107 % of control
dose: 25.0 mg/kg/injection, schedule: Q01DX009 (ip), vehicle: water
  survivor count: 2 of 6
[1]
  T/C: 88 % of control
  survivor count: 4 of 6 and 6 of 6
dose: 50.0 mg/kg/injection, schedule: Q01DX009 (ip), vehicle: water
  survivor count: 0 of 6
[2]
  T/C: 89 [5 of 6 alive], 94, 128 % of control
  survivor count: 0 of 6
dose: 75.0 mg/kg/injection, schedule: Q01DX001 (ip), vehicle: other
  survivor count: 1 of 6
dose: 100.0 mg/kg/injection, schedule: Q04DX003 (ip), vehicle: water
  survivor count: 0 of 6
dose: 150.0 mg/kg/injection, schedule: Q01DX001 (ip), vehicle: other
  survivor count: 0 of 6
dose: 200.0 mg/kg/injection, schedule: Q04DX003 (ip), vehicle: water
  survivor count: 1 of 6
dose: 300.0 mg/kg/injection, schedule: Q01DX001 (ip), vehicle: other
  survivor count: 0 of 6
dose: 400.0 mg/kg/injection, schedule: Q04DX003 (ip), vehicle: water
  survivor count: 0 of 6

## C[n+]1ccccc1/C=C/c1ccnc2c(O)cccc12
dose: 300.0 mg/kg/injection, schedule: Q01DX001 (ip), vehicle: carboxymethylcellulose (CMC)
  survivor count: 2 of 6

## Cc1cc(C(=O)Nc2ccc(NC3=NCCN3)cc2)c(C)cc1C(=O)Nc1ccc(NC2=NCCN2)cc1
dose: 0.94 mg/kg/injection, schedule: Q01DX Z (ip), vehicle: saline
  survivor count: 6 of 6
dose: 60.0 mg/kg/injection, schedule: Q01DX Z (ip), vehicle: saline
  survivor count: 0 of 6
dose: 120.0 mg/kg/injection, schedule: Q01DX Z (ip), vehicle: saline
  survivor count: 0 of 6

## CC(C)COP(=O)(Cc1ccccc1)OCC(C)C
dose: 400.0 mg/kg/injection, schedule: Q01DX009 (ip), vehicle: Klucel (hydroxypropylcellulose) (HPC)
  survivor count: 3 of 6

## O=c1ccc([N+](=O)[O-])c[nH]1.[Ag]
dose: 50.0 mg/kg/injection, schedule: Q04DX003 (ip), vehicle: Klucel (hydroxypropylcellulose) (HPC)
  survivor count: 3 of 6
dose: 100.0 mg/kg/injection, schedule: Q04DX003 (ip), vehicle: Klucel (hydroxypropylcellulose) (HPC)
  survivor count: 1 of 6
[3]
  survivor count: 0 of 6
[4]
  survivor count: 0 of 6

## CCOC(=O)NP(=O)(N1CC1(C)C)N1CC1(C)C (centres undefined)
dose: 125.0 mg/kg/injection, schedule: Q01DX010 (ip), vehicle: saline
  T/C: 135 % of control
dose: 500.0 mg/kg/injection, schedule: Q01DX010 (ip), vehicle: saline
  survivor count: 2 of 6 and 3 of 6

## CCCC(C(=O)OCCNC1CCCCC1)c1ccccc1 (centres undefined)
dose: 150.0 mg/kg/injection, schedule: Q01DX001 (ip), vehicle: saline
  survivor count: 3 of 6
dose: 300.0 mg/kg/injection, schedule: Q01DX001 (ip), vehicle: saline
  survivor count: 0 of 6

## O=c1c2cccc3cccc(c32)c2nc3ccccc3n12
[5]
  survivor count: 3 of 6

## BrCC(Br)CBr
[5]
  survivor count: 0 of 6

## CC(=O)Nc1c(Cl)c(Cl)c2c(c1Cl)Cc1cc(F)ccc1-2
dose: 650.0 mg/kg/injection, schedule: Q01DX Z (ip), vehicle: saline
  survivor count: 2 of 6

## CC(C)(C)CC(N)=O
[3]
  T/C: 129 % of control

## CCOC(=O)C(C(C)=O)C(c1cccc(O)c1)C(C(C)=O)C(=O)O (centres undefined)
dose: 400.0 mg/kg/injection, schedule: Q04DX002 (ip), vehicle: saline with Tween-80
  survivor count: 3 of 3
[5]
  survivor count: 2 of 6

## O=c1ccnc(SCc2ccc(Cl)cc2)[nH]1
dose: 200.0 mg/kg/injection, schedule: Q01DX Z (ip), vehicle: methylcellulose (MC)
  survivor count: 6 of 6

## N#[N+]c1c(O)cc(S(=O)(=O)O)c2ccccc12
dose: 200.0 mg/kg/injection, schedule: Q01DX009 (ip), vehicle: saline
  survivor count: 6 of 6
dose: 400.0 mg/kg/injection, schedule: Q01DX009 (ip), vehicle: saline
  survivor count: 6 of 6
[6]
  survivor count: 6 of 6

## CCC(=O)C(CCN(C)C)(c1ccccc1)c1ccccn1 (centres undefined)
dose: 100.0 mg/kg/injection, schedule: Q01DX Z (ip), vehicle: saline
  survivor count: 2 of 6

## CCN(CC)P(=O)(N1CC1)N1CC1
dose: 1.7 mg/kg/injection, schedule: Q01DX Z (ip), vehicle: saline
  T/C: 129 and 138 % of control
dose: 3.0 mg/kg/injection, schedule: Q01DX Z (ip), vehicle: saline
  T/C: 130 % of control
dose: 4.0 mg/kg/injection, schedule: Q01DX Z (ip), vehicle: saline
  T/C: 133 and 144 % of control
dose: 6.0 mg/kg/injection, schedule: Q01DX Z (ip), vehicle: saline
  T/C: 128 and 138 % of control
dose: 9.0 mg/kg/injection, schedule: Q01DX Z (ip), vehicle: saline
  T/C: 126 % of control
dose: 21.0 mg/kg/injection, schedule: Q01DX Z (ip), vehicle: saline
  survivor count: 4 of 6 and 7 of 7
dose: 32.0 mg/kg/injection, schedule: Q01DX Z (ip), vehicle: saline
  survivor count: 3 of 6

## COc1cc(N(CCCl)CCCl)c(OC)cc1/C=N\Nc1nncn1N
dose: 5.0 mg/kg/injection, schedule: Q01DX015 (ip), vehicle: carboxymethylcellulose (CMC)
  T/C: 120, 125, 127, 129 % of control [5 of 6 alive]
dose: 9.0 mg/kg/injection, schedule: Q01DX015 (ip), vehicle: carboxymethylcellulose (CMC)
  T/C: 130 and 132 % of control
dose: 22.0 mg/kg/injection, schedule: Q01DX001 (ip), vehicle: carboxymethylcellulose (CMC)
  T/C: 132 % of control
dose: 25.0 mg/kg/injection, schedule: Q01DX015 (ip), vehicle: carboxymethylcellulose (CMC)
  survivor count: 1 of 6 and 6 of 6
dose: 50.0 mg/kg/injection, schedule: Q01DX001 (ip), vehicle: carboxymethylcellulose (CMC)
  T/C: 132 [3 of 4 alive] and 149 % of control
dose: 75.0 mg/kg/injection, schedule: Q01DX001 (ip), vehicle: carboxymethylcellulose (CMC)
  survivor count: 1 of 4
dose: 200.0 mg/kg/injection, schedule: Q01DX001 (ip), vehicle: carboxymethylcellulose (CMC)
  survivor count: 0 of 4
dose: 400.0 mg/kg/injection, schedule: Q01DX001 (ip), vehicle: carboxymethylcellulose (CMC)
  survivor count: 0 of 4

## CC(=O)c1coc(=O)cc1O
dose: 200.0 mg/kg/injection, schedule: Q01DX001 (ip), vehicle: Klucel (hydroxypropylcellulose) (HPC)
  survivor count: 5 of 6
dose: 400.0 mg/kg/injection, schedule: Q01DX001 (ip), vehicle: Klucel (hydroxypropylcellulose) (HPC)
  survivor count: 2 of 6

## Nc1ncnc2c1ncn2C1SC(CO)C2OC21 (centres undefined)
dose: 100.0 mg/kg/injection, schedule: Q01DX005 (ip), vehicle: saline
  T/C: 138 % of control

## Cc1ccc(NC(=O)NCCCl)cc1NC(=O)NCCCl
[4]
  survivor count: 6 of 6

## C1CCC2(CC1)CN2
dose: 200.0 mg/kg/injection, schedule: Q01DX001 (ip), vehicle: saline
  survivor count: 1 of 6
dose: 400.0 mg/kg/injection, schedule: Q01DX001 (ip), vehicle: saline
  survivor count: 0 of 6

## CC(CN1CCN(C)CC1)CN1c2ccccc2Sc2ccc(C(F)(F)F)cc21 (centres undefined)
dose: 100.0 mg/kg/injection, schedule: Q04DX003 (ip), vehicle: saline
  survivor count: 2 of 4
[7]
  survivor count: 0 of 6
dose: 200.0 mg/kg/injection, schedule: Q04DX003 (ip), vehicle: saline
  survivor count: 0 of 4
[5]
  survivor count: 0 of 6
[6]
  survivor count: 0 of 4

## COc1c(Cl)cc([N+](=O)[O-])cc1Cl
dose: 100.0 mg/kg/injection, schedule: Q01DX009 (ip), vehicle: gum acacia
  survivor count: 2 of 6 and 3 of 6
dose: 200.0 mg/kg/injection, schedule: Q01DX009 (ip), vehicle: gum acacia
  survivor count: 0 of 6
dose: 400.0 mg/kg/injection, schedule: Q01DX009 (ip), vehicle: gum acacia
  survivor count: 0 of 6

## O=C(NCC(S)c1ccc(Cl)cc1)C(F)(F)F (centres undefined)
dose: 50.0 mg/kg/injection, schedule: Q04DX003 (ip), vehicle: saline with Tween-80
  survivor count: 6 of 6
dose: 100.0 mg/kg/injection, schedule: Q04DX003 (ip), vehicle: saline with Tween-80
  survivor count: 6 of 6
[7]
  survivor count: 6 of 6
